The source of these data is article PMC8495455, “Discovery of a transdermally deliverable pentapeptide for activating AdipoR1 to promote hair growth” (EMBO Molecular Medicine, 2021).

The labels stand for the following.
T1: GST-fused P10 (NIPGL) (human)
T1 sequence: NIPGL

T2: GST-fused mutant peptide GLYDF (human)
T2 sequence: GLYDF

T3: GST-fused P5 (GLYYF) (human)
T3 sequence: GLYYF

T4: GST-fused mutant peptide GLYAF (human)
T4 sequence: GLYAF

B1: Flag-fused full-length AdipoR1 (residues 1-375) (receptor, UniProt Q96A54 1-375)
chain: MSSHKGSVVAQGNGAPASNREADTVELAELGPLLEEKGKRVIANPPKAEEEQTCPVPQEEEEEVRVLTLPLQAHHAMEKMEEFVYKVWEGRWRVIPYDVLPDWLKDNDYLLHGHRPPMPSFRACFKSIFRIHTETGNIWTHLLGFVLFLFLGILTMLRPNMYFMAPLQEKVVFGMFFLGAVLCLSFSWLFHTVYCHSEKVSRTFSKLDYSGIALLIMGSFVPWLYYSFYCSPQPRLIYLSIVCVLGISAIIVAQWDRFATPKHRQTRAGVFLGLGLSGVVPTMHFTIAEGFVKATTVGQMGWFFLMAVMYITGAGLYAARIPERFFPGKFDIWFQSHQIFHVLVVAAAFVHFYGVSNLQEFRYGLEGGCTDDTLL
B2: Flag-fused N-terminal-truncated AdipoR1 (residues 89-375) (domain or fragment, UniProt Q96A54 89-375)
chain: EGRWRVIPYDVLPDWLKDNDYLLHGHRPPMPSFRACFKSIFRIHTETGNIWTHLLGFVLFLFLGILTMLRPNMYFMAPLQEKVVFGMFFLGAVLCLSFSWLFHTVYCHSEKVSRTFSKLDYSGIALLIMGSFVPWLYYSFYCSPQPRLIYLSIVCVLGISAIIVAQWDRFATPKHRQTRAGVFLGLGLSGVVPTMHFTIAEGFVKATTVGQMGWFFLMAVMYITGAGLYAARIPERFFPGKFDIWFQSHQIFHVLVVAAAFVHFYGVSNLQEFRYGLEGGCTDDTLL
B3: Flag-fused AdipoR1 (residues 89-375) F361A (domain or fragment, UniProt Q96A54 89-375)
chain: B2 chain with F273A
B4: Flag-fused AdipoR1 (residues 89-375) Y229A (domain or fragment, UniProt Q96A54 89-375)
chain: B2 chain with Y141A
B5: Flag-fused AdipoR1 (residues 89-375) E289R (domain or fragment, UniProt Q96A54 89-375)
chain: B2 chain with E201R
B6: Flag-fused AdipoR1 (residues 89-375) E366R (domain or fragment, UniProt Q96A54 89-375)
chain: B2 chain with E278R
B7: Flag-fused AdipoR1 (residues 89-375) F285K (domain or fragment, UniProt Q96A54 89-375)
chain: B2 chain with F197K
B8: Flag-fused AdipoR1 (residues 89-375) R362A (domain or fragment, UniProt Q96A54 89-375)
chain: B2 chain with R274A
B9: Flag-fused AdipoR1 (residues 89-375) R362E (domain or fragment, UniProt Q96A54 89-375)
chain: B2 chain with R274E
B10: Flag-fused AdipoR1 (residues 89-375) F285A/F361A (domain or fragment, UniProt Q96A54 89-375)
chain: B2 chain with F197A, F273A
B11: Flag-fused AdipoR1 (residues 89-375) F285Y (domain or fragment, UniProt Q96A54 89-375)
chain: B2 chain with F197Y

Changes are numbered by the printed parent chain. Numbers in names are those of the source. No constants are given. Whether binding was seen depends on the method and setting. Binding seen in cells or lysates may run through a third protein. Some binding calls cover weakened binding; strength is not graded here. Tags and fused reporters may be left off the sequences shown.

In the first experiment the target is T1, GST-fused P10 (NIPGL) (human). In words: pull-down; purified GST-fused peptide on glutathione-Sepharose beads, mixed with lysate of HEK293T cells expressing Flag-AdipoR1, 4°C overnight; washed with PBST, eluted with 20 mM glutathione; Western blot with Flag and GST antibodies; only the target purified.
Regarding B1, the binding result is reported as “no binding”.

A further experiment concerns the target T2, GST-fused mutant peptide GLYDF (human). The description is as above.
B2: the binding entry is on record as “binds”.

The next experiment addresses T3, GST-fused P5 (GLYYF) (human). The description is as above.
As for B3, the binding entry is recorded as “binds”. The same measure, in the same setting: then B4, with “binds”; and B5, with “binds”. The same measure, in the same setting: then B6, with “binds”; and B7, with “binds”. Same read-out and setting: the value for B8 was “binds”. In the case of B9, the binding result is recorded as “binds”.

With B10, the binding entry was “binds”.

In the case of B11, the binding entry is listed as “binds”.

In the case of B2, the binding entry was “binds”.

In the case of B1, the binding result is “binds”.

The target in the next experiment is T4, GST-fused mutant peptide GLYAF (human). Described as above.
For B2, the binding result is reported as “binds”.
